This experiment concerns the target GST-fused Lnp (lunapark) (human) (UniProt Q9C0E8). In words: affinity purification with mass spectrometry; GST-Lnp immobilised on glutathione Sepharose, incubated with Triton X-100 extract of Sus scrofa brains at 4 °C overnight; eluted with 2 M NaCl; SDS-PAGE, silver staining, bands cut out for mass spectrometry; only the target purified.

Sequences of proteins named here, by UniProt entry; tags and fusion partners are left off.
UniProt Q9C0E8: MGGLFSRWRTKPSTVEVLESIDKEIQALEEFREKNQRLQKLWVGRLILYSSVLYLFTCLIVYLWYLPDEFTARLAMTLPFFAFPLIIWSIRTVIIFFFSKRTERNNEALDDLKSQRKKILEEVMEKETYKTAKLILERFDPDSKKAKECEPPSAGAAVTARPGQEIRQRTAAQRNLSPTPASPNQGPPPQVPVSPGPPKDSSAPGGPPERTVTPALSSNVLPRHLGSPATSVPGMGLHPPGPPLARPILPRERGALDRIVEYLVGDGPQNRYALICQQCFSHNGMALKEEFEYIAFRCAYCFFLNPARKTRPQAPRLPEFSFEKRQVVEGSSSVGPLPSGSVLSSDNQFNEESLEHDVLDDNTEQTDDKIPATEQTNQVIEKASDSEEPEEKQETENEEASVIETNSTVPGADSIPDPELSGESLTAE

Results are given in words; binding and its absence hold for the method and conditions named. In cells and extracts the contact can be indirect. Here binding means that the protein was enriched with, or labelled near, the bait; the list need not be complete.

B1: Cullin-associated and neddylation-dissociated 1 (CAND1) of Sus scrofa brain (protein, UniProt F2Z5R6 1-1229)
chain: MASASYHISNLLEKMTSSDKDFRFMATNDLMTELQKDSIKLDDDSERKVVKNLKLLEDKNGEVQNLAVKCLGPLVSKVKEYQVETIVDTLCTNMLSDKEQLRDISSIGLKTVIGELPPASSGSALAANVCKKITGRLTSAIAKQEDVSVQLEALDIMADMLSRQGGLLVNFHPSILTCLLPQLTSPRLAVRKRTIIALGHLVMSCGNIVFVDLIEHLLSELSKNDSMSTTRTYIQCIAAISRQAGHRIGEYLEKIIPLVVKFCNVDDDELREYCIQAFESFVRRCPKEVYPHVSTIINICLKYLTYDPNYNYDDEDEDENAMDADGGDDDDQGSDDEYSDDDDMSWKVRRAAAKCLDAVVSTRHEMLPEFYKTVSPALISRFKEREENVKADVFHAYLSLLKQTRPVQSWLCDPDAMEQGETPLTMLQSQVPNIVKALHKQMKEKSVKTRQCCFNMLTELVNVLPGALTQHIPVLVPGIIFSLNDKSSSSNLKIDALSCLYVILCNHSPQVFHPHVQALVPPVVACVGDPFYKITSEALLVTQQLVKVIRPLDQPSSFDATPYIKDLFTCTIKRLKAADIDQEVKERAISCMGQIICNLGDNLGSDLPNTLQIFLERLKNEITRLTTVKALTLIAGSPLKIDLRPVLGEGVPILASFLRKNQRALKLGTLSALDILIKNYSDSLTAAMIDAVLDELPPLISESDMHVSQMAISFLTTLAKVYPSSLSKISGSILNELIGLVRSPLLQGGALSAMLDFFQALVVTGTNNLGYMDLLRMLTGPVYSQSTALTHKQSYYSIAKCVAALTRACPKEGPAVVGQFIQDVKNSRSTDSIRLLALLSLGEVGHHIDLSGQLELKSVILEAFSSPSEEVKSAASYALGSISVGNLPEYLPFVLQEITSQPKRQYLLLHSLKEIISSASVVGLKPYVENIWALLLKHCECAEEGTRNVVAECLGKLTLIDPETLLPRLKGYLISGSSYARSSVVTAVKFTISDHPQPIDPLLKNCIGDFLKTLEDPDLNVRRVALVTFNSAAHNKPSLIRDLLDTVLPHLYNETKVRKELIREVEMGPFKHTVDDGLDIRKAAFECMYTLLDSCLDRLDIFEFLNHVEDGLKDHYDIKMLTFLMLVRLSTLCPSAVLQRLDRLVEPLRATCTTKVKANSVKQEFEKQDELKRSAMRAVAALLTIPEAEKSPLMSEFQSQISSNPELAAIFESIQKDSSSTNLESMDTS
With B1, the binding result is recorded as “binds”.

The values are drawn from paper PMC6739345, “CAND1 regulates lunapark for the proper tubular network of the endoplasmic reticulum” (Scientific Reports, 2019).
